# PubChem BioAssay AID2685 (National Center for Advancing Translational Sciences (NCATS), 2010)
# The list shows a part of the results. Further columns of the screen follow, without active or inactive calls. Most of these compounds were active or inconclusive in the main read-out, so they are no random draw. Words in brackets tell the shape of the fitted curve; partial curves, single points and poor fits give uncertain potencies.
# Experiment: qHTS Assay for Lipid Storage Modulators in Drosophila S3 Cells;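 for cell number change: cells counted by Cell Tracker Red CMTPX staining in the red channel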
# Conditions: BODIPY lipid droplet fluorescence, 18-24 h; for cell number change: measured here: cell count max response, cells fed with added oleic acid
# Summary of the method: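 Drosophila S3 cells loaded with oleic acid (400 uM, as added) and compounds at several concentrations; lipid droplets imaged by 488-nm laser-scanning cytometry, 500–530 nm intensity and object ratio to cell channel. Percent activity normalized to 20 uM Triacsin C.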
# [1] = measured here: lipid fluorescence (Fed channel) AC50, cells fed with added oleic acid
# [2] = measured here: cell number channel AC50, cells fed with added oleic acid
Structure (SMILES),cell number change,AC50 [1],AC50 [2]
CN(Cc1cn(C)nc1-c1ccccc1F)CC1CCN(Cc2ccccc2)CC1,29%,"0.00411 µM [falling, full curve, poor fit]",
CN(CC(=O)NCCc1ccc(S(N)(=O)=O)cc1)c1ccccc1,9.23%,,"0.00461 µM [falling, full curve, poor fit]"
O=C(CNC(=O)C1CCCCC1)NCc1ccco1,4.05%,"6.51 µM [falling, single point]",
CCOc1ccc(/C=N/OC(C)C(=O)NCc2ccc3c(c2)OCO3)cc1 (stereo not given),42%,"1.03 µM [rising, full curve]","5.17 µM [rising, full curve]"
O=C(CSc1nnc(-c2ccccc2O)o1)NC1CCCCC1,25%,"1.16 µM [rising, single point]",
COC(=O)C1=C(CN2CCc3ccccc32)NC(=O)NC1c1cc(C)ccc1C (stereo not given),-8.5%,"6.51 µM [falling, single point]",
CCCNC(=O)c1ccc(N2CCC3(CC2)CC(c2cccc(Br)c2)=NO3)c(NC(=O)c2ccco2)c1,-15.8%,"29.1 µM [falling, single point]",
CC(C)(O)/C=C1/Oc2ccccc2C1N1CCCCC1 (stereo not given),-35.6%,"1.16 µM [falling, full curve]","1.16 µM [falling, partial curve]"
NC(=O)c1c(NC(=O)c2c(F)cccc2F)sc2c1CCN(Cc1ccccc1)C2,13%,,
CCOC(=O)c1ccc(NC(=O)COc2ccccc2CNCCc2ccccc2)cc1,-77.7%,,"22.4 µM [falling, single point]"
Nn1c(SCC(=O)Nc2ccc3c(c2)OCO3)nnc1-c1ccccc1,-21.5%,"0.517 µM [rising, full curve, poor fit]",
CN1CCC(=O)N([C@H](CO)c2ccccc2)CC1,2.1%,,
COc1ccc(CCNC(=O)COC(=O)CCC(=O)c2ccc(F)cc2)cc1,-33%,,"18.4 µM [falling, single point]"
O=C(Nc1cc(Cl)ccc1-n1cncn1)c1cc(S(=O)(=O)N2CCOCC2)ccc1F,-34.6%,"11.6 µM [falling, partial curve]","8.2 µM [falling, partial curve, poor fit]"
COc1cc(NC(=O)c2cccs2)c(OC)cc1NC(=O)CCC(=O)Nc1ccc(C)cc1,515%,,"25.9 µM [rising, partial curve]"
O=C(O)c1cn(C2CC2)c2cc(N3CCN(S(=O)(=O)c4ccc5c(c4)OCCO5)CC3)c(F)cc2c1=O,150%,,
CCOC(=O)c1ccc(NC(=O)N2CCN(c3ccccc3OC)CC2)cc1,24.8%,,
CN(C(=O)c1ccno1)c1nnc(-c2cnccn2)s1,,,"0.58 µM [rising, single point]"
Cc1ccnc(N2CCN(C(=O)CSc3nc4ccccc4nc3N3CCCCC3)CC2)c1,,"2.31 µM [rising, partial curve]","2.31 µM [rising, partial curve]"

# Part of the list above in order of length of the SMILES, largest number first:
Structure (SMILES),cell number change,AC50 [1],AC50 [2]
CCCNC(=O)c1ccc(N2CCC3(CC2)CC(c2cccc(Br)c2)=NO3)c(NC(=O)c2ccco2)c1,-15.8%,"29.1 µM [falling, single point]",
Cc1ccnc(N2CCN(C(=O)CSc3nc4ccccc4nc3N3CCCCC3)CC2)c1,,"2.31 µM [rising, partial curve]","2.31 µM [rising, partial curve]"
CN(Cc1cn(C)nc1-c1ccccc1F)CC1CCN(Cc2ccccc2)CC1,29%,"0.00411 µM [falling, full curve, poor fit]",

# Continued:

Structure (SMILES),cell number change,AC50 [1],AC50 [2]
Cc1ccc(-c2noc(-c3ccccc3C(=O)N3CCN(C)CC3)n2)cc1,19.6%,"29.1 µM [rising, single point]",
OC1(c2ccccc2)C/C(=N\n2cnnc2)C=C1c1ccccc1 (stereo not given),7.65%,"0.00517 µM [falling, full curve, poor fit]",
O=C(/C=C/c1ccccc1)NC(=O)c1ccccc1O,,"2.06 µM [falling, partial curve]","5.8 µM [falling, single point]"
O=c1c2ccccc2nc(COc2ccccc2)n1/N=C/c1cn[nH]c1-c1ccccc1,0.826%,"0.103 µM [rising, full curve, poor fit]",
CCC(C(=O)NC1CC1)n1nc(C)c2c(C)n(-c3ccccc3)nc2c1=O (stereo not given),18.6%,"23.1 µM [rising, single point]",
CCN(C(=O)c1cc2c(=O)[nH]c3ccc(C)cc3c2s1)c1ccccc1C,9%,,
COCCN1Cc2cccc(C(=O)NC3CCCCCC3)c2C1=O,4.09%,"18.4 µM [rising, single point]",
CCn1cc(SCC(=O)NCc2ccc3c(c2)OCO3)c2ccccc21,,"6.51 µM [rising, partial curve, poor fit]",
CN(C)CCCNC(=O)c1ccc(Cl)c(S(=O)(=O)N(C)c2ccccc2)c1,12.4%,"0.164 µM [rising, full curve, poor fit]",
CCOC(=O)c1c(NC(=O)c2cccs2)sc(CC)c1-c1cccs1,,"23.1 µM [rising, partial curve]","1.64 µM [rising, partial curve]"
CCNC(=O)NC(=O)C(C)OC(=O)c1oc2ccc(OC)cc2c1C (stereo not given),,"4.11 µM [rising, partial curve]",
COc1ccc(N2CCN(CCCNC(=O)CC3Oc4ccc(C)cc4NC3=O)CC2)cc1 (stereo not given),-51.2%,,"13 µM [falling, partial curve]"
CCn1cc(C(=O)NCc2ccc(OC)cc2)c(=O)c2ccc(C)nc21,13.1%,,
Cc1ccc(C)c(OCC(=O)NNC(=O)CCN2CCN(c3ccccc3)CC2)c1,-18.7%,"0.0058 µM [rising, full curve, poor fit]",
COc1ccccc1-c1noc(CCCC(=O)NC2CCCC2)n1,-22.9%,,
Fc1cc(Br)ccc1NC(=S)Nc1cccnc1,32.7%,"0.231 µM [rising, full curve, poor fit]","0.184 µM [rising, full curve, poor fit]"
C=C(C)Cn1c(CN(C)Cc2ccccc2)nc2c1c(=O)n(C)c(=O)n2C,,"0.731 µM [falling, full curve]",
CCCS(=O)(=O)N1CCN(C(=O)c2ccc(-c3ccccc3)cc2)CC1,,"10.3 µM [rising, partial curve]",
COc1cccc(/C=N/NC(N)=S)c1OCc1ccccc1Cl,-39.1%,"3.66 µM [falling, full curve]","13 µM [falling, partial curve]"

Structure (SMILES),cell number change,AC50 [1],AC50 [2]
C=CCSc1nc2ccccc2n1C(=O)/C=C/c1ccc(OC)c(OC)c1,-19%,"0.731 µM [falling, full curve]",
O=C(NCCCCNC(=O)c1ccccn1)c1ccccn1,15%,"0.82 µM [rising, full curve, poor fit]",
O=C(O)c1ccccc1Nc1ccc([N+](=O)[O-])c2nonc12,-81.6%,"23.1 µM [falling, single point]","29.1 µM [falling, single point]"
COc1cc(C(=O)NCc2nnc(SCC(=O)N3CCCCC3)o2)cc(OC)c1OC,,"20.6 µM [falling, partial curve]",
O=C(CCC(=O)OCC(F)(F)C(F)F)NCc1ccccc1,-27.6%,"5.8 µM [falling, single point]","4.11 µM [falling, full curve, poor fit]"
CC(C)c1nnc(NC(=O)CCC(=O)N2CCN(C3CCCCC3)CC2)s1,-65.9%,"6.51 µM [falling, partial curve]","5.17 µM [falling, partial curve, poor fit]"
COc1ccc(CCNC(=O)c2coc3ccccc3c2=O)cc1,15%,"6.51 µM [rising, partial curve, poor fit]",
COc1ccc(NC(=O)C2=C(C)Nc3ncnn3C2c2ccccc2C(F)(F)F)c(OC)c1 (stereo not given),-1.19%,"20.6 µM [rising, single point]",
CCN1CCN(P2(=O)C=C(c3ccccc3)OC(c3ccccc3)=C2)CC1,10.1%,"5.8 µM [falling, partial curve, poor fit]",
COc1ccc(CCNC(=O)c2ccc(CNS(=O)(=O)c3cc(C)ccc3C)cc2)cc1OC,-0.536%,"18.4 µM [falling, partial curve]",
CC(NC(=O)c1sc2cc([N+](=O)[O-])ccc2c1Cl)C(C)(C)C (stereo not given),-24.1%,,
O=C1CC(=C(c2ccccc2)c2ccccc2)C(=O)N1CCCN1CCN(c2cccc(Cl)c2)CC1,6.26%,"10.3 µM [falling, partial curve]",
Brc1ccc(/C=N/Nc2ccc3ccccc3n2)cc1,-53.5%,"18.4 µM [falling, partial curve]","23.1 µM [falling, partial curve]"
O=C(Nc1ccc(Cl)cc1)c1cc(-c2cccs2)on1,41.2%,"16.4 µM [rising, partial curve, poor fit]","0.092 µM [rising, full curve, poor fit]"
O=C(NCCNc1ccc([N+](=O)[O-])cc1)c1cccc2c(Br)cccc12,4.42%,"6.51 µM [rising, partial curve, poor fit]",
Cc1ccc(NC(=O)c2cc(S(=O)(=O)N3CCCCC3)ccc2N2CCOCC2)cc1F,18.4%,"6.51 µM [rising, single point]","1.64 µM [rising, partial curve, poor fit]"
COc1ccc(OCc2nnc(SCC(N)=O)n2-c2ccccc2OC)cc1,12.9%,"29.1 µM [rising, single point]",
COc1ccc2[nH]c(C(=O)Nc3cccc(C)n3)cc2c1,-6.12%,"18.4 µM [falling, partial curve]",
CC(C)(C)OC(=O)N[C@@H](COCc1ccccc1)C(=O)N[C@@H](CO)[C@H](O)[C@@H]1C[C@@H]1C(=O)NC1CCCCC1,11.1%,,
